The values below are quoted from earlier work in US9295653B2, “Controlled agglomeration” (Veloxis Pharmaceuticals A/S, priority 2001, dated 2016).

For this data set the following is noted: in vivo.

Consider `COC(=O)C1=C(C)NC(C)=C(C(=O)OC)C1c1ccccc1[N+](=O)[O-]` [Nifedipine], for which the “absorption after oral administration” value was “rapidly and fully absorbed”.
